{"source": "PubChem BioAssay AID540276", "about": "(National Center for Advancing Translational Sciences (NCATS), 2011)", "note": "About 5,400 (1.8%) of roughly 300,000 compounds were called active. The inconclusive results got no clear call from the source; some entries with a clear call stand among them for comparison. Calls come from the whole dose curve; tested in HEK293 cells. A potency beside an inconclusive call is a rough fit, not a confirmed value. % is set by controls: 0 for no effect and ±100 for the full control effect; potency is the fitted concentration of half-maximal effect."}
{"test": "qHTS for inhibitors of binding or entry into cells for Marburg Virus", "conditions": "Marburg virus pseudotyped entry inhibition, cell reporter; activity change, negative = inhibition: at 37.8 µM (top of the series) unless noted"}
{"smiles": "COc1ccc(OCCCCn2c(C3CC(=O)N(c4cccc(Cl)c4)C3)nc3ccccc32)cc1", "note": "(stereo not drawn)", "activity change, negative = inhibition": "inactive: -27.5% [at 46.1 µM]"}
{"smiles": "Cc1ccc(Cn2cc(/C=N/Nc3ccc([N+](=O)[O-])cn3)c3ccccc32)cc1", "Potency": "inconclusive: 12.6 µM [inhibitor, partial curve]"}
{"smiles": "O=C(CSc1nnc(Cc2ccccc2)n1-c1ccc(F)cc1)N1CCOCC1", "activity change, negative = inhibition": "inactive: 2.83%"}
{"smiles": "COCCNC(=O)C(=O)Nc1cccc(Br)c1", "activity change, negative = inhibition": "inactive: 21.3%"}
{"smiles": "COCc1cc(C)nc(SCC(=O)Nc2ccccc2N2CCOCC2)c1C#N", "activity change, negative = inhibition": "inactive: -19.1% [at 46.1 µM]"}
{"smiles": "Cc1cccc2cc(C3CC(c4ccco4)=NN3S(C)(=O)=O)c(Cl)nc12", "note": "(stereo not drawn)", "Potency": "inconclusive: 12.6 µM [inhibitor, partial curve]"}
{"smiles": "OCCC1CN(Cc2ccc(-c3ccco3)cc2)CCN1Cc1ccsc1", "note": "(stereo not drawn)", "Potency": "inconclusive: 14.1 µM [inhibitor, single point]"}
{"smiles": "CC(=O)N1c2ccc(S(=O)(=O)N3CCC(C(=O)Nc4cccc(C)c4)CC3)cc2CC1C", "note": "(stereo not drawn)", "Potency": "inconclusive: 2.51 µM [activator, single point]"}
{"smiles": "COc1ccc(-c2nc(-c3cccs3)c(-c3cccs3)[nH]2)cc1OC", "Potency": "inconclusive: 35.5 µM [inhibitor, single point]"}
{"smiles": "COCCN1Cc2c(sc(C)c2C)N(C(=O)c2ccccc2)C1", "Potency": "inconclusive: 3.55 µM [inhibitor, single point]"}
{"smiles": "COC(=O)C(Cc1ccccc1)NC(=O)c1cc(=O)[nH]c2ccccc12", "note": "(stereo not drawn)", "Potency": "inconclusive: 35.5 µM [activator, single point]"}
{"smiles": "C=C(C)Cn1c(-c2ccncc2)n[nH]c1=S", "Potency": "inconclusive: 7.08 µM [activator, partial curve, poor fit]"}
{"smiles": "CC1(C)CC(=O)c2cc(-c3nc(-c4ccc(Cl)cc4)cs3)c(=O)n(-c3ccc(Cl)cc3)c2C1", "Potency": "inconclusive: 35.5 µM [activator, single point]"}
{"smiles": "COc1ccc(OC)c(-n2c(SCC(=O)Nc3cccc(S(N)(=O)=O)c3)nc3ccccc3c2=O)c1", "Potency": "inconclusive: 39.8 µM [inhibitor, partial curve, poor fit]"}
{"smiles": "CCC(=O)N1CCc2cc(Br)cc(S(=O)(=O)NCC3CCCO3)c21", "note": "(stereo not drawn)", "Potency": "inconclusive: 1.3 µM [activator, full curve, poor fit]"}
{"smiles": "COc1ccc(C(=O)CSc2nnc(CNC(=O)c3ccc(S(=O)(=O)N(C)C)cc3)o2)cc1", "Potency": "inconclusive: 4.47 µM [activator, partial curve, poor fit]"}
{"smiles": "CCOC(=O)c1cc(-c2ccc3c(c2)OCO3)nc2onc(C)c12", "activity change, negative = inhibition": "inactive: 2.83%"}
{"smiles": "Cn1ccnc1SCCNC(=O)CCc1nnc(CCc2ccccc2)o1", "Potency": "inconclusive: 14.1 µM [activator, single point]"}
{"smiles": "CCOCC(=O)Nc1ccc(OCc2ccccc2)cc1", "activity change, negative = inhibition": "inactive: 14% [at 46.1 µM]"}
{"smiles": "COC(=O)c1cc(NC(=O)c2ccc(Cn3cc(Cl)cn3)o2)cc(C(=O)OC)c1", "Potency": "inconclusive: 28.2 µM [inhibitor, partial curve, poor fit]"}
{"smiles": "COc1ccccc1/C=N/NC(=O)c1csc(C)c1C", "activity change, negative = inhibition": "inactive: 1.56%"}
{"smiles": "O=C(Nc1ccc(Cl)cn1)c1ccc2ccccc2n1", "Potency": "inconclusive: 0.708 µM [activator, full curve, poor fit]"}
{"smiles": "Cc1ccc(C(C(=O)NC2CCCC2)N(Cc2cccs2)C(=O)c2csnn2)o1", "note": "(stereo not drawn)", "activity change, negative = inhibition": "inactive: 9.73%"}
{"smiles": "COc1ccccc1N1CCN(Cc2ccc(Cl)cc2Cl)CC1", "Potency": "inconclusive: 20.6 µM [inhibitor, partial curve, poor fit]"}
{"smiles": "O=C(NCc1cccs1)C1CCCN(C(=O)Nc2ccccc2)C1", "note": "(stereo not drawn)", "Potency": "inconclusive: 35.5 µM [inhibitor, single point]"}
{"smiles": "COCCCn1c(=N)c(C(=O)NCc2ccc3c(c2)OCO3)cc2c(=O)n3ccccc3nc21", "Potency": "inconclusive: 20.6 µM [inhibitor, partial curve, poor fit]"}
{"smiles": "O=C(CSc1ccccc1Cl)NC1CCCc2ccccc21", "note": "(stereo not drawn)", "Potency": "inconclusive: 1 µM [activator, single point]"}
{"smiles": "COc1ccc(C(=O)NC2=Nc3ccccc3N=C(C)C2c2ccccc2)cc1", "note": "(stereo not drawn)", "activity change, negative = inhibition": "inactive: -5.99% [at 46.1 µM]"}
{"smiles": "COc1ccccc1C1(CC(=O)Nc2nccs2)CCOC(C(C)C)C1", "note": "(stereo not drawn)", "Potency": "inconclusive: 20.6 µM [inhibitor, single point]"}
{"smiles": "CC1=C(C)/C(=N\\OC(=O)/C=C/c2ccccc2)C=CC1=O", "Potency": "inconclusive: 0.1 µM [inhibitor, full curve, poor fit]"}
{"smiles": "N/C(Cc1ccc([N+](=O)[O-])cc1)=N\\OC(=O)c1ccco1", "Potency": "inconclusive: 16.4 µM [inhibitor, single point]"}
{"smiles": "COC(=O)c1cc(NC(=O)CN(C)C2CCS(=O)(=O)C2)cc(C(=O)OC)c1", "note": "(stereo not drawn)", "activity change, negative = inhibition": "inactive: 0.992%"}
{"smiles": "CCOc1ccc(-c2nc(C#N)c(NCC3CCCO3)o2)cc1", "note": "(stereo not drawn)", "activity change, negative = inhibition": "inactive: -12.7%"}
{"smiles": "COc1ccc(NC(=O)Cn2nc(C(=O)O)c3ccccc3c2=O)cc1OC", "Potency": "inconclusive: 0.708 µM [activator, full curve, poor fit]"}
{"smiles": "COCCNCC(=O)NCC12CC3CC(CC(C3)C1)C2", "Potency": "inconclusive: 1.26 µM [activator, single point]"}
{"smiles": "Nn1c(CN2CCCCC2)nc2ccccc2c1=O", "activity change, negative = inhibition": "inactive: -9.25%"}
{"smiles": "CN1CCN(C(=O)/C(=C\\c2ccc3c(c2)OCO3)NC(=O)c2cccs2)CC1", "Potency": "inconclusive: 35.5 µM [activator, single point]"}
{"smiles": "COc1cc(-c2nc(Cn3nnc(C(=O)Nc4cc(C)cc(C)c4)c3C)c(C)o2)cc(OC)c1OC", "Potency": "inconclusive: 3.16 µM [inhibitor, full curve, poor fit]"}
{"smiles": "O=C(O)c1cccc(NC(=S)NC(=O)c2ccc3ccccc3c2)c1", "Potency": "inconclusive: 3.55 µM [inhibitor, partial curve, poor fit]"}
{"smiles": "CC1CCc2sc3ncnc(N4CCN(CCO)CC4)c3c2C1", "note": "(stereo not drawn)", "Potency": "inconclusive: 22.4 µM [inhibitor, single point]"}
{"smiles": "O=C(Nc1ccc2c(c1)OCO2)C1Cc2ccccc2CN1S(=O)(=O)c1cccs1", "note": "(stereo not drawn)", "activity change, negative = inhibition": "inactive: -16.8%"}
{"smiles": "COc1ccc(/C=N/NC(=O)c2nc(-c3ccccc3)n(-c3ccccc3)n2)cc1", "activity change, negative = inhibition": "inactive: 2.03%"}
{"smiles": "CCOC(=O)c1ccc(S(=O)(=O)NCC(c2ccc(N(C)C)cc2)c2c[nH]c3ccccc23)cc1", "note": "(stereo not drawn)", "activity change, negative = inhibition": "inactive: -3.38%"}
{"smiles": "CCCc1nc(-c2cc3ccc(C)cc3[nH]c2=O)no1", "activity change, negative = inhibition": "inactive: -23.9%"}
{"smiles": "Cc1ccc(OCc2cnc(Cl)s2)c(C)c1", "Potency": "inconclusive: 3.16 µM [inhibitor, single point]"}
{"smiles": "Cc1nnc(SCC(=O)Nc2ccc(Br)cc2)[nH]c1=O", "Potency": "inconclusive: 31.6 µM [activator, single point]"}
{"smiles": "O=C(CSc1ncnc2c1cnn2-c1ccccc1)Nc1ccccc1", "Potency": "inconclusive: 9.2 µM [inhibitor, partial curve]"}
{"smiles": "COc1cccc(-c2nc(CSCC(=O)NCCc3ccc(Cl)cc3)c(C)o2)c1", "Potency": "inconclusive: 35.5 µM [inhibitor, single point]"}
{"smiles": "CC(C)(O)C#Cc1ccc([C@@H]2C[C@H]3CN(c4ccccc4)C(=O)[C@]34CCCN24)s1", "Potency": "inconclusive: 7.08 µM [inhibitor, full curve, poor fit]"}
{"smiles": "CCn1cc(C(=O)NCc2ccccc2)c(=O)c2cc(F)c(N3CCN(C(=O)c4ccco4)CC3)cc21", "Potency": "inconclusive: 12.6 µM [inhibitor, partial curve, poor fit]"}
{"smiles": "CN1CCN(C(=S)c2ccc(N(C)C)cc2)CC1", "activity change, negative = inhibition": "inactive: 8.61%"}
{"smiles": "Nc1cc(Cl)nc(N/N=C/c2ccc([N+](=O)[O-])cc2)n1", "Potency": "inconclusive: 0.13 µM [inhibitor, full curve, poor fit]"}
{"smiles": "CCOCC(=O)Nc1ccc(-c2cn3cccnc3n2)cc1", "Potency": "inconclusive: 0.58 µM [activator, partial curve, poor fit]"}
{"smiles": "CC(C)(CCO)Nc1ncnc2onc(-c3ccc(F)cc3)c12", "activity change, negative = inhibition": "inactive: -3.06% [at 46.1 µM]"}
{"smiles": "O=C(c1cccnc1)n1nc(NCc2ccccc2)nc1NCc1ccccc1", "activity change, negative = inhibition": "inactive: -14.3% [at 46.1 µM]"}
{"smiles": "Cn1c(Sc2ccc(C(F)(F)F)cc2[N+](=O)[O-])nnc1-c1ccccc1", "Potency": "inconclusive: 25.9 µM [inhibitor, single point]"}
{"smiles": "COc1ccc(S(=O)(=O)N2CCOCC2)cc1NC(=O)/C=C/c1ccccc1", "Potency": "inconclusive: 11.2 µM [inhibitor, partial curve, poor fit]"}
{"smiles": "COc1cccc2c1cc1c(=O)n(CC(=O)NC3CC3)nc(C)n12", "activity change, negative = inhibition": "inactive: 1.86% [at 46.1 µM]"}
{"smiles": "CC1(C)OC(c2ccccc2)=C/C(=C/C=N/NC(=O)c2ccncc2)O1", "Potency": "inconclusive: 22.4 µM [inhibitor, single point]"}
{"smiles": "CCCCN(CCCC)CC(O)Cn1cc(/C=C/C(=O)c2ccccc2)c2ccccc21", "note": "(stereo not drawn)", "Potency": "inconclusive: 20 µM [inhibitor, single point]"}
{"smiles": "CSc1nc(Oc2ccc3ccccc3c2)c2ccccc2n1", "Potency": "inconclusive: 11.2 µM [inhibitor, partial curve]"}
{"smiles": "O=S(=O)(c1cccc(F)c1)N1CCC(c2nc3ccccc3s2)CC1", "activity change, negative = inhibition": "inactive: 5.7% [at 46.1 µM]"}
{"smiles": "Cc1cccc2c(C(=O)N3CCN(c4ccccc4)CC3)cc(-c3ccncc3)nc12", "Potency": "inconclusive: 1 µM [inhibitor, full curve, poor fit]"}
{"smiles": "Cc1occc1C(=O)NCCCCc1ccccc1", "Potency": "inconclusive: 3.16 µM [inhibitor, single point]"}
{"smiles": "CC(NC(=O)c1ccccc1Br)c1ccc2c(c1)CCCC2", "note": "(stereo not drawn)", "Potency": "inconclusive: 29.1 µM [inhibitor, single point]"}
{"smiles": "CNC(=O)/C(C#N)=C\\c1ccc(CNS(=O)(=O)c2ccccc2)o1", "Potency": "inconclusive: 31.6 µM [activator, single point]"}
{"smiles": "CCCn1nnc(NC(=O)c2ccco2)n1", "Potency": "inconclusive: 25.9 µM [activator, single point]"}
{"smiles": "CCC1(C)Cc2ccccc2-c2nc(NCCO)n(-c3ccccc3)c(=O)c21", "note": "(stereo not drawn)", "Potency": "inconclusive: 16.4 µM [activator, single point]"}
